# PubChem BioAssay AID504795 | Drosophila RNAi Screening Center – 2011
# Test: 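Knock-downs causing abnormal branching, bundling, swelling or growth of cultured neurons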 (primary screen)
# System: primary Drosophila neurons and glia
# Reagent: long dsRNA against Drosophila genes, 250 ng dsRNA per well
# Timing: one week
# Measured: 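Descriptive morphology terms assigned by visual inspection of live automated images of GFP-marked cells, taken one week after adding 250 ng dsRNA per well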
# The reagents shown are a selection, not the whole library. 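Every listed dsRNA shows some phenotype; how reagents were selected for listing is not stated.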 A plus sign joins genes that one reagent is predicted to hit.
gene,amplicon,"phenotype seen, replicate 1","phenotype seen, replicate 2"
eIF3c,DRSC06905,reduced axon outgrowth,
ImpE3,DRSC16716,abnormal cell clusters,
CG9692,DRSC11091,too many neurite branches,
CG2694,DRSC18470,axon bundles split apart,
Sox14,DRSC04656,too many neurite branches,
Aplip1,DRSC07947,axon bundles split apart,
Aplip1,DRSC08697,sheet-like cell extensions,
heph,DRSC15436,sheet-like cell extensions,
Pax,DRSC01703,axon bundles split apart,
CG8750,DRSC11037,axon bundles split apart,
Hr38,DRSC03345,abnormal cell clusters,
CG30096,DRSC21744,fewer cells,
Ercc1,DRSC07424,too many neurite branches,
Abca3,DRSC20546,axon bundles split apart,
Prm,DRSC11255,abnormal cell clusters,
CG1316,DRSC08304,sheet-like cell extensions,
CG5880,DRSC15906,too many neurite branches,
Inx2,DRSC18783,too many neurite branches,
MtnC,DRSC22879,reduced axon outgrowth,
Dh44-R2,DRSC06281,abnormal cell clusters,
CG30065,DRSC05420,too many neurite branches,
CG30338,DRSC05166,abnormal cell clusters,
Wnk,DRSC11813,abnormal cell clusters,
p,DRSC16560,too many neurite branches,
Pepck1,DRSC07505,axon bundles split apart,
Irbp,DRSC17007,abnormal cell clusters,
Pdhb,DRSC14420,axon bundles split apart,
ftz-f1,DRSC11347,abnormal cell clusters,
CG8891,DRSC03120,axon bundles split apart,
byn,DRSC11332,axon bundles split apart,
CG13059,DRSC09942,too many neurite branches,
gukh,DRSC14768,reduced axon outgrowth,
gukh,DRSC15806,fewer cells,
CG7692,DRSC10902,beaded; swollen axons,
CG34433,DRSC15077,sheet-like cell extensions,
PGRP-LC,DRSC10416,axon bundles split apart,
CG15756,DRSC19721,too many neurite branches,
CG17819,DRSC15279,abnormal cell clusters,
ND-B12,DRSC04060,too many neurite branches,
Cyp313a5,DRSC16628,beaded; swollen axons,
CG5050,DRSC02807,too many neurite branches,
Wdr62,DRSC00701,axon bundles split apart,
lbm,DRSC07643,axon bundles split apart,
Rheb,DRSC12148,axon bundles split apart,
loh,DRSC01122,reduced axon outgrowth,
Nlg1,DRSC12533,reduced axon outgrowth,
CG31683 + CG18858,DRSC02703,too many neurite branches,
twi,DRSC04720,axon bundles split apart,
CG42568 + DnaJ-60,DRSC04207,too many neurite branches,
Elovl7,DRSC15452,too many neurite branches,axon bundles split apart
Elovl7,DRSC21570,too many neurite branches,
Act79B,DRSC11604,reduced axon outgrowth,
CG3703,DRSC18173,too many neurite branches,
BaraA1 + BaraA2,DRSC05417,abnormal cell clusters,
Mmp2,DRSC06698,beaded; swollen axons,
CG9393,DRSC16486,axon bundles split apart,
Jhbp14,DRSC01988,axon bundles split apart,
CG14646,DRSC12232,too many neurite branches,
CG15536,DRSC15072,too many neurite branches,
hop,DRSC20340,sheet-like cell extensions,
raskol,DRSC19967,beaded; swollen axons,
CG5382,DRSC15786,reduced axon outgrowth,
rumi,DRSC15177,too many neurite branches,
CG34353,DRSC14517,too many neurite branches,
Seipin,DRSC18654,abnormal cell clusters,
SmydA-4,DRSC19390,too many neurite branches,
zip,DRSC04725,too many neurite branches,
CG30447,DRSC05820,abnormal cell clusters,
CG34404,DRSC15335,reduced axon outgrowth,
blanks,DRSC09757,too many neurite branches,
alphaSnap,DRSC11285,reduced axon outgrowth,
Arglu1,DRSC02909,beaded; swollen axons,
CG31729,DRSC02946,axon bundles split apart,
comm3,DRSC09993,abnormal cell clusters,

A run of entries taken from the entries so far, as a working copy:
gene,amplicon,"phenotype seen, replicate 1","phenotype seen, replicate 2"
gukh,DRSC15806,fewer cells,
CG7692,DRSC10902,beaded; swollen axons,
CG34433,DRSC15077,sheet-like cell extensions,
PGRP-LC,DRSC10416,axon bundles split apart,
CG15756,DRSC19721,too many neurite branches,
CG17819,DRSC15279,abnormal cell clusters,
ND-B12,DRSC04060,too many neurite branches,
Cyp313a5,DRSC16628,beaded; swollen axons,
